# Data taken from PubChem BioAssay AID743255 (National Center for Advancing Translational Sciences (NCATS), 2014).
# Sequences of proteins named here, by UniProt entry; tags and fusion partners are left off. A change or cut given only in a name is not applied to a line headed by its entry.
# UniProt O94782: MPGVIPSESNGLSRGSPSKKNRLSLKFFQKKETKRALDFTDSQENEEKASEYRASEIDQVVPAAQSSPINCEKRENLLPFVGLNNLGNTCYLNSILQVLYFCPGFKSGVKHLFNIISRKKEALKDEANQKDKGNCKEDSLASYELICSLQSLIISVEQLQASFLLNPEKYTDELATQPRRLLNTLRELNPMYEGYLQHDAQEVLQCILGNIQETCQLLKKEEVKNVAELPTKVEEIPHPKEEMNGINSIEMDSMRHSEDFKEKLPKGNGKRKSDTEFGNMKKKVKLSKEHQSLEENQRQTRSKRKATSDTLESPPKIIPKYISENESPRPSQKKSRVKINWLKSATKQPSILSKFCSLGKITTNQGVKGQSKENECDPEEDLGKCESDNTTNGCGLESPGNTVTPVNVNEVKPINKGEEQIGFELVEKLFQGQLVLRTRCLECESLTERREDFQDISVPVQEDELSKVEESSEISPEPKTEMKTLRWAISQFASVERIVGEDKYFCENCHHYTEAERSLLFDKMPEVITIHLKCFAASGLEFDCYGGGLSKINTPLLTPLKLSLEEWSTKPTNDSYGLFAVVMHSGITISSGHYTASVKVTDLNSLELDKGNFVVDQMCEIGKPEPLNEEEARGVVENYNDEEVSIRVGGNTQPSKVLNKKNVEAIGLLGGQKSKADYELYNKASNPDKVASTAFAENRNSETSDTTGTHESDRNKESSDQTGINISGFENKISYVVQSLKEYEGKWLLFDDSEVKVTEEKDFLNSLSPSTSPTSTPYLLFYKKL
# Among all 390,000 compounds or so, about 910 (0.23%) were called active. The shares of active, inactive and inconclusive entries below differ from those in the screen. Calls come from the whole dose curve; as a rule, active = well fitted inhibition curve with a large enough effect; inconclusive = small, poorly fitted or top-dose-only effect; inactive = no such curve, though single readings can be large or run the other way. A potency beside an inconclusive call is a rough fit, not a confirmed value.
# Target: Ubiquitin carboxyl-terminal hydrolase 1 (Homo sapiens) (UniProt O94782)
# Test: Inhibitors of USP1/UAF1: Primary Screen; note: nearly all actives have a fitted effect of over 60% in size
# Settings: recombinant USP1/UAF1, Ub-Rhodamine cleavage fluorescence; activity change, negative = inhibition: at 57.1 µM (top of the series)
# Procedure, shortened: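 1 nM enzyme complex + cpd, 15 min RT; start with Ub-Rho 150nM final; kinetic fluorescence ex 480/em 540, 6 reads q60 s. Buffer 50mM HEPES pH 7.8, 0.5mM EDTA, 0.1 mg/ml BSA, 1mM TCEP, 0.01% Tween-20.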
# % is set by controls: 0 for no effect and ±100 for the full control effect; potency is the fitted concentration of half-maximal effect.
SMILES,Potency,"activity change, negative = inhibition"
CCOc1ccc(NC(=O)c2cnn3c2NC(C)=C(C(=O)Nc2ccc(Cl)cc2)C3c2ccc(OC)c(OC)c2)cc1 (stereo not given),"inconclusive: 44.7 µM [inhibitor, single point]",
COc1ccccc1-c1oc2ccccc2c1C#CCCCCO,"inconclusive: 50.1 µM [inhibitor, partial curve, poor fit]",
COc1ccccc1CNC(=O)Cn1ccc2cc(S(=O)(=O)N3CCCC3)ccc21,"inconclusive: 0.0891 µM [inhibitor, full curve, poor fit]",
c1ccc2c(C3=NNC(=NC4CC4)SC3)c[nH]c2c1,,inactive: -19.9%
CCC(Sc1nc2nccnc2c(=O)n1Cc1ccc(Cl)cc1)C(=O)NC1CCCCC1 (stereo not given),,inactive: -11.7%
CCc1nnc(NC(=O)CSc2nnc(C(C)NC(=O)c3ccccc3)n2C)s1 (stereo not given),,inconclusive: -31.9% [inhibitor]
N#CC1=C(N)Oc2cc(O)c(Cl)cc2C1c1ccccc1F (stereo not given),"inconclusive: 44.7 µM [inhibitor, partial curve]",
O=C(NC(=O)c1cccc(F)c1)Nc1nc(-c2ccc(F)cc2)cc(C(F)(F)F)n1,"inconclusive: 12.6 µM [inhibitor, partial curve, poor fit]",
COc1ccc(OC)c(N(C)S(=O)(=O)c2ccc3c(c2)NC(=O)CC(=O)N3)c1,"inconclusive: 141 µM [inhibitor, partial curve, poor fit]",
COc1ccc(/C=C2\CCc3ccccc3C2=O)cc1CN1CCOCC1,"inconclusive: 35.5 µM [inhibitor, partial curve, poor fit]",
c1ccc(Nc2nc3ccccc3n3cnnc23)cc1,"inconclusive: 8.91 µM [inhibitor, partial curve, poor fit]",
CC1CCN(S(=O)(=O)c2ccc3nc(Nc4cccc(F)c4)ccc3c2)CC1,,inactive: -8.86%
CN(C)C(=O)c1ccc(-c2nnc(NCc3ccccc3)c3ccccc23)cc1,,inactive: -20.1%
O=c1c(N2CCN(c3ccc(F)cc3)CC2)csc2ccc(F)cc12,,inactive: -29.5%
Oc1c(Br)cc(/C=N/Nc2nncc3ccccc23)cc1Br,"inconclusive: 44.7 µM [inhibitor, partial curve, poor fit]",
Cc1cccc(N2CCN(c3ccc4cc(S(=O)(=O)N5CCC(C)CC5)ccc4n3)CC2C)c1 (stereo not given),"inconclusive: 20 µM [inhibitor, partial curve]",
CCCN(CCC)CCCNC(=O)c1ccc2c(Cl)c3c(nc2c1)CCC3,,inactive: -6.82%
C[C@H]1CN([C@@H](C)CO)C(=O)c2cccc(NS(=O)(=O)c3ccc(F)cc3)c2O[C@H]1CN(C)S(=O)(=O)c1cn(C)cn1,"inconclusive: 0.251 µM [inhibitor, full curve, poor fit]",
O=C(CCl)N1c2ccccc2SCC1c1ccccc1 (stereo not given),"inconclusive: 70.8 µM [inhibitor, partial curve, poor fit]",
CCC1(C)Cc2nc3[nH]c(=S)n(-c4ccc(C)cc4)c(=O)c3cc2CO1 (stereo not given),,inactive: -22.1%
CN1CCc2c(sc3c2C(=O)NC(/C=C\c2ccccc2)N3)C1 (stereo not given),"inconclusive: 31.6 µM [inhibitor, partial curve]",
C[C@@H](CO)NC(=O)c1ccc2c3n(nc2c1)-c1ccc(Cl)cc1CO3,"inconclusive: 39.8 µM [inhibitor, partial curve]",

# Entries shown so far that have an NH in an aromatic ring:
SMILES,Potency,"activity change, negative = inhibition"
c1ccc2c(C3=NNC(=NC4CC4)SC3)c[nH]c2c1,,inactive: -19.9%
CCC1(C)Cc2nc3[nH]c(=S)n(-c4ccc(C)cc4)c(=O)c3cc2CO1 (stereo not given),,inactive: -22.1%

# Next structures.

SMILES,Potency,"activity change, negative = inhibition"
CCN(CC)c1ccc2cc(C(N)=O)c(=O)oc2c1,"inconclusive: 35.5 µM [inhibitor, partial curve, poor fit]",
Cc1cccc(S(=O)(=O)C(C#N)c2nc3ccccc3nc2N2CC(C)OC(C)C2)c1 (stereo not given),"inconclusive: 22.4 µM [inhibitor, partial curve, poor fit]",
CCOc1ccc(/C=C(\C#N)C(=O)Nc2sc3c(c2C(=O)OC)CCC3)cc1OC,"inconclusive: 0.0708 µM [inhibitor, full curve, poor fit]",
O=C(N/N=C/c1ccc(-c2ccccc2[N+](=O)[O-])o1)[C@H]1C[C@@H]1c1ccccc1,"inconclusive: 31.6 µM [inhibitor, partial curve]",
Cc1ccc(CNC(=O)CCc2c(C)c3cc4c(C)coc4cc3oc2=O)cc1,"inconclusive: 0.562 µM [inhibitor, full curve, poor fit]",
CC(C)c1ccc(CNC(=O)c2ccc(N3CCCC3)c(NC(=O)NCc3ccc(F)cc3)c2)cc1,"inconclusive: 8.91 µM [inhibitor, partial curve]",
COCCNC(=O)C(=O)N/N=C/c1ccc(C(=O)OC)cc1,"inconclusive: 28.2 µM [inhibitor, partial curve]",
CSCCC(NC(=O)c1ccc(Cl)cc1)C(=O)OCC(=O)Nc1ccc(C#N)cc1 (stereo not given),,inactive: -6.88%
N#Cc1c(-n2ncnc2-c2ccccc2Cl)sc2c1CCCCC2,"inconclusive: 0.794 µM [inhibitor, full curve, poor fit]",
Nc1c(-c2ccccc2)cnn1-c1ccc(C(=O)O)cc1,"inconclusive: 10 µM [inhibitor, single point]",
CCCOc1cc(NCc2ccccc2)c2ncn(C(C)C)c2c1,"inconclusive: 44.7 µM [inhibitor, partial curve, poor fit]",
COc1ccc2cc(CNc3ccccc3)c(=O)n(CC(=O)Nc3ccc(C(C)=O)cc3)c2c1,"inconclusive: 35.5 µM [inhibitor, single point]",
COc1ccccc1N1CCN(/N=C\c2sccc2C)CC1,"inconclusive: 39.8 µM [inhibitor, partial curve, poor fit]",
CCc1ccc(NCc2cc3cc(OC)c(OC)cc3n(CC(=O)Nc3ccc(F)cc3)c2=O)cc1,"inconclusive: 20 µM [inhibitor, partial curve]",
Cc1ccc(NC(=O)CC2Nc3ccccc3NC2=O)cc1Cl (stereo not given),"inconclusive: 44.7 µM [inhibitor, partial curve]",
Cc1cc2c(sc3c(C)ccc(C)c32)c(C)n1,"inconclusive: 3.98 µM [inhibitor, partial curve]",
N#CC(C#N)=Cc1ccc(-c2ccc(S(=O)(=O)N=C(N)N)cc2)o1,"inconclusive: 44.7 µM [inhibitor, partial curve]",
Cc1cc(Oc2nc3ccccn3c(=O)c2/C=C(\C#N)c2nc3ccccc3s2)ccc1Cl,"inconclusive: 3.55 µM [inhibitor, full curve, poor fit]",
Cc1c(-c2nc3ccccc3[nH]2)cnn1C,,inactive: -21%
Cc1ccc(C(=O)CSc2nc(-c3ccccc3)nc3c2CCCC3)cc1C,,inactive: -15.3%
CC(=NNC(=O)c1ccncc1)c1ccc2ccccc2c1O,"inconclusive: 4.47 µM [inhibitor, single point]",
CCCN(CCC)c1cc(C)nc2nc(-c3ccc(Cl)cc3)nn12,,inactive: -16.5%

SMILES,Potency,"activity change, negative = inhibition"
CCN1C(=O)[C@H]2[C@@H](c3ccc(-c4ccc(C(C)=O)cc4)c(OC)c3)N[C@@](Cc3ccccc3)(C(=O)OC)[C@H]2C1=O,,inconclusive: -32.3% [inhibitor]
O=C(Nc1cc(S(=O)(=O)N2CCOCC2)ccc1N1CCCC1)c1ccc(F)cc1,"inconclusive: 50.1 µM [inhibitor, partial curve, poor fit]",
Cc1ccc(C(=O)Nc2nc(-c3ccco3)c(-c3ccco3)s2)o1,,inactive: -9.63%
CC(=O)Nc1nonc1-c1nnc(SCC(=O)Nc2c(C)cccc2C)n1-c1ccccc1,"inconclusive: 50.1 µM [inhibitor, partial curve, poor fit]",
COc1ccc(-c2cc(C(F)F)n3ncc(C(=O)N4CCc5ccccc54)c3n2)cc1,,inactive: -10.3%
O=C(CSc1ncnc2c(-c3ccc(Cl)cc3)nsc12)c1ccccc1,,inconclusive: -12.9% [inhibitor]
CC(N=c1ccccn1C(=O)Nc1ccc(F)cc1)c1ccco1 (stereo not given),"inconclusive: 28.2 µM [inhibitor, single point]",
COc1ccccc1C(CCNCc1ccccc1)c1ccc(OC(C)C)cc1 (stereo not given),,inactive: -12.8%
O=C(NCc1ccc2c(c1)OCO2)C(=O)NCC1OCCN1S(=O)(=O)c1ccc(Cl)cc1 (stereo not given),,inactive: -14.4%
CCCN1CCC(=O)N(CCSc2ccc(C)cc2)CC1,"inconclusive: 2.82 µM [inhibitor, full curve]",
CCOc1ccc(NC(=O)Cn2c(=O)n(CC(=O)NCCc3ccccc3)c(=O)c3sccc32)cc1,,inactive: 10.6%
CCCCCCCCCCOC(=O)Cn1c(COc2cccc(OC)c2)[n+](C)c2ccccc21,"inconclusive: 44.7 µM [inhibitor, partial curve, poor fit]",
Cc1cc2sc3ccc(C#CC4(O)CCCCC4)cc3c(=O)c2cc1C,"inconclusive: 3.98 µM [inhibitor, partial curve, poor fit]",
N#Cc1ccc(-c2cccnc2)nc1SCC(=O)Nc1sc2c(c1C#N)CCC2,"inconclusive: 25.1 µM [inhibitor, partial curve]",
C=CC[C@@H](CC(=O)N[C@H](CO)Cc1ccccc1)C(=O)N[C@H](COC(=O)[C@@H](CC=C)CC(=O)OC(C)(C)C)Cc1c[nH]c2ccccc12,,inactive: 11.6%
CCC(C)(C(=O)NC1CCCC1)N(C)C(=O)c1ccccn1 (stereo not given),,inactive: 2.55%
CCOC(=O)c1c(C)[nH]c(C)c1S(=O)(=O)N(C)CC(=O)N1CCN(c2cccc(C)c2C)CC1,,inactive: -22.2%
CCCN=Cc1sc2ccc(OCC)cc2c1O,,inactive: -10.5%
Cc1ccc(S(=O)(=O)N2CCC(C(=O)OCC(=O)N(Cc3ccccc3)C(C)C)CC2)cc1C,"inconclusive: 0.251 µM [inhibitor, full curve, poor fit]",
CC(=O)Nc1ccc(NC(=O)CC(C)n2ccc(C)n2)cc1 (stereo not given),,inactive: 3.58%
C[C@@H]1COC(=O)[C@H](NC(=O)OCC2c3ccccc3-c3ccccc32)C/C=C\C[C@@H](CC(=O)N[C@@H](CO)Cc2ccccc2)C(=O)N1,"inconclusive: 8.91 µM [inhibitor, partial curve, poor fit]",
